# Where “and” joins values, the source holds several entries; their conditions need not be identical. Equal values may be shown once. Among all 400,000 compounds or so, about 5,500 (1.4%) were called active. The inconclusive results got no clear call from the source; some entries with a clear call stand among them for comparison. Calls come from the whole dose curve; as a rule, active = well fitted cell-killing curve with a large enough effect; inconclusive = small, poorly fitted or top-dose-only effect, or effect the other way; inactive = flat fitted curve, though single readings scatter. Potencies of inconclusive entries are doubtful fits and often do not repeat.
# Experiment: qHTS assay for MDR1-selective chemotherapeutics: Primary screen using the parental adenocarcinoma cell KB-3-1; note: nearly all actives have a fitted effect of over 60% in size
# Conditions: KB-3-1 viability, CellTiter-Glo ATP luminescence, 72 h; activity change, negative = cytotoxic: at 46.1 µM (top of the series)
# In short: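 Multi-concentration cytotoxicity screen in KB-3-1 cells grown in DMEM lacking phenol red with 10% FBS. After 72 h at 37 °C with compound, ATP-dependent luminescence was recorded.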
# % is set by controls: 0 for no effect and ±100 for the full control effect; potency is the fitted concentration of half-maximal effect.
Structure (SMILES),Potency,"activity change, negative = cytotoxic"
COc1ccc2c(c1)c(CC(=O)Nc1cccc(S(N)(=O)=O)c1)c(C)n2C(=O)c1ccc(Cl)cc1,inactive,
COc1ccc(Cl)cc1S(=O)(=O)Nc1ccc2c(c1)n(C)c(=O)n2C,"inconclusive: 2.91 µM [cytotoxic, full curve] and inconclusive: 14.6 µM [cytotoxic, partial curve, poor fit]",
O=C(c1cccs1)N1C[C@@H](O)[C@H](n2cc(-c3ccc(F)cc3)nn2)C[C@@H]1c1ccc(Cl)cc1,"inconclusive: 29.1 µM [cytotoxic, single point]",
COc1ccc([C@H]2CC(=O)C=C(c3ccc(OC)c(F)c3)C2)cc1,inactive,
O=C(O)C(Cc1ccccc1N(CCO)CCO)N1C(=O)c2ccccc2C1=O (configuration not stated),"inconclusive: 29.1 µM [rising, single point]",
CC(=O)C1=C(c2cccc([N+](=O)[O-])c2)N(C(C)=O)n2c(C)nnc2S1,active: 14.6 µM,
COc1ccccc1-c1nnc2n1N=C(c1ccc(O)c(O)c1)CS2,"inconclusive: 0.0052 µM [cytotoxic, full curve, poor fit]",
Cc1ccc(NC(=S)N/N=C/c2c(Cl)cccc2Cl)c(C)c1,active: 0.58 µM,
N#CCC(=O)NNC(=S)NC(=O)C(c1ccccc1)c1ccccc1,inactive,
O=S(=O)(c1ccccc1Cl)N1CCCC1c1nc(-c2ccccc2Cl)no1 (configuration not stated),inactive,
COC(=O)c1[nH]c2ccc(C)cc2c1NC(=O)CN1CCN(c2ccc(F)cc2)CC1,"inconclusive: 15.8 µM [cytotoxic, single point]",
O=C1OC(Nc2ncccn2)c2ccccc21 (configuration not stated),inactive,
COc1ccccc1-c1noc(CCC(=O)Nc2cccc(C(F)(F)F)c2)n1,"inconclusive: 29.1 µM [cytotoxic, single point]",
Cc1ccc2nc(C(F)(F)F)c(C#N)c(N)c2c1,"inconclusive: 29.1 µM [cytotoxic, single point]",
O=C(Nc1ccc(-c2nnc(-c3ccccc3)o2)cc1)C(F)(F)F,"inconclusive: 2.31 µM [cytotoxic, full curve, poor fit]",
COc1ccc(CN2CCC2(C)C(=O)Nc2cnc3ccccc3c2)c2ccccc12 (configuration not stated),inactive,
CC(=O)Oc1cccc2c1C(=O)c1c(OC(C)=O)cc(C(=O)O)cc1C2=O,"inconclusive: 25.9 µM [cytotoxic, partial curve, poor fit]",
CCCC(=O)N1c2ccccc2C(=C2SC(C(=O)OC)=C(C(=O)OC)S2)C(=S)C1(C)C,"inconclusive: 25.9 µM [cytotoxic, single point]",
COc1ccc(C2=Nc3ccc(C)cc3C(c3ccccc3)N2CC(=O)NN)cc1 (configuration not stated),inactive,
Cc1ccc(-c2nc(CSCC(=O)NCc3cccnc3)c(C)o2)cc1,"inconclusive: 16.4 µM [cytotoxic, single point]",
COc1ccc(F)cc1-c1cc(NC(C)=O)c2ncc(-c3cc(OC)c(OC)c(OC)c3)n2c1,active: 7.31 µM,
CCCN1Cc2cccc(C(=O)Nc3ccccc3F)c2C1=O,inactive,
CCOc1ccc(/C(O)=C2/C(=O)C(=O)N(c3ccccn3)C2c2ccc(Cl)cc2)c(C)c1 (configuration not stated),"inconclusive: 32.6 µM [cytotoxic, single point]",
CCN(C(=O)CN1C(=O)/C(=C/c2ccccc2)SC1=S)C1CCS(=O)(=O)C1 (configuration not stated),inactive,

# Complete entries from above.
# COc1ccc(Cl)cc1S(=O)(=O)Nc1ccc2c(c1)n(C)c(=O)n2C is entered as Potency: inconclusive: 2.91 µM [cytotoxic, full curve] and inconclusive: 14.6 µM [cytotoxic, partial curve, poor fit]
# Cc1ccc(-c2nc(CSCC(=O)NCc3cccnc3)c(C)o2)cc1 is entered as Potency: inconclusive: 16.4 µM [cytotoxic, single point]
# CC(=O)Oc1cccc2c1C(=O)c1c(OC(C)=O)cc(C(=O)O)cc1C2=O is entered as Potency: inconclusive: 25.9 µM [cytotoxic, partial curve, poor fit]

# (more compounds)

Structure (SMILES),Potency,"activity change, negative = cytotoxic"
CCOC(=O)c1c(Nc2ccc(OCC)cc2)nnc(-c2ccccc2)c1-c1ccccc1,inactive,
O=C(CSc1nnc(-c2ccc(F)cc2)c2ccccc12)Nc1cccc(Cl)c1,inactive,
O=C(NCCCn1ccnc1)c1cc(-c2ccc(Cl)cc2)nc2ccccc12,"inconclusive: 29.1 µM [cytotoxic, partial curve, poor fit]",
CCn1c(=O)c(C(=O)CN2CCCc3ccccc32)c(N)n(Cc2ccccc2)c1=O,"inconclusive: 20.6 µM [cytotoxic, single point]",
Cc1cccc2c1-c1sc(C(=O)NCCCN3CCC(C)CC3)cc1CO2,"inconclusive: 29.1 µM [cytotoxic, single point]",
CCOCCCn1c(SCc2nc3ccccc3s2)nc2ccccc2c1=O,active: 11.6 µM,
Cc1ccc[n+](CC(=O)/C=C2\N(C)c3ccccc3C2(C)C)c1,active: 7.31 µM,
CC(C)(C)c1ccc(C(=O)NC(=S)NNC(=O)COc2ccccc2)cc1,"inconclusive: 29.1 µM [cytotoxic, single point]",
COc1ccc2ncc3c(-c4ccccc4)nn(-c4ccc(C)c(C)c4)c3c2c1,inactive,
Cc1ccc(NC2=NC3(CCCC3)N=C(N)N2)c(C)c1,active: 4.11 µM,
O=C(CCNS(=O)(=O)c1ccccc1C(F)(F)F)N1CCN(C(c2ccccc2)c2ccccc2)CC1,"inconclusive: 14.6 µM [cytotoxic, partial curve, poor fit]",
CC(C)(C)OC(=O)N1CCC(CC2CC(c3cccc(Br)c3)=NO2)(C(=O)NCC2CCCCC2)CC1 (configuration not stated),"inconclusive: 23.1 µM [cytotoxic, single point]",
COc1cc(OC)c(/C=C/c2ccccn2)c(OC)c1,active: 5.17 µM,
CC1C(=O)N(Cc2cn(CC3CCCCC3)nn2)CCS(=O)(=O)N1Cc1ccc(-c2cccc(CO)c2)cc1 (configuration not stated),"inconclusive: 20.6 µM [cytotoxic, single point]",
CCn1c(=O)cc(OCC(=O)NCCCN2CCN(c3cccc(Cl)c3)CC2)c2ccccc21,"inconclusive: 29.1 µM [cytotoxic, single point]",
CCc1nc2c(sc3nc4c(cc32)COC(C)(C)C4)c(=O)n1Cc1ccccc1,inactive,
COC(=O)C1(C(=O)OC)C[C@H](c2cccs2)N(Cc2ccccc2OC)[C@@H]1c1ccc(F)cc1,"inconclusive: 18.4 µM [cytotoxic, partial curve]",
O=C(Nc1cccc(S(=O)(=O)N2CCCCCC2)c1)C1CCN(C(=O)c2ccc(Cl)cc2)CC1,"inconclusive: 29.1 µM [cytotoxic, single point]",
COc1cc(CNCCSc2nnnn2C)ccc1OCc1ccccc1,"inconclusive: 16.4 µM [cytotoxic, partial curve, poor fit]",
CCOc1ccc(NC(=O)CN2C(=O)c3ccccc3C2=O)cc1,"inconclusive: 2.91 µM [rising, partial curve, poor fit]",
CCCC1CC(C)(c2csc(Nc3ccc(OCC)cc3)n2)OC1=O (configuration not stated),"inconclusive: 23.1 µM [cytotoxic, single point]",
CCC1=Nc2cc(C(=O)NC3CCCC3)ccc2Sc2ccc(Cl)cc21,active: 5.8 µM,
CC(C)NC(=O)CSc1nnc(-c2ccncc2)n1-c1ccccc1,,inconclusive: -36.7%
O=C(NN1CCOCC1)c1ccc(Cl)s1,"inconclusive: 13 µM [rising, partial curve]",

Structure (SMILES),Potency,"activity change, negative = cytotoxic"
NNC(=O)c1sccc1OCc1ccc(Cl)cc1,inactive,
CCCNC(=S)Nc1ccc(CC(=O)OC)cc1,,inconclusive: 0.242%
Cc1ccc(C(=O)n2c3ccccc3c3ccccc32)cc1,active: 10.3 µM,
C[C@@H]1CN([C@H](C)CO)C(=O)CCCn2nncc2CO[C@H]1CN(C)S(=O)(=O)c1cccc(F)c1,inactive,
Cc1nn(C)c(-c2n[nH]c(=S)n2-c2ccccc2)c1Cl,inactive,
Cc1c(/C=N/NC(=O)c2ccc3c(c2)OCO3)cnn1C,"inconclusive: 35.5 µM [cytotoxic, partial curve, poor fit]",
NC(=O)C(=O)NCCCN1CCOCC1,inactive,
COc1cc(NC(=O)c2cc(-c3ccccc3Cl)on2)cc(OC)c1OC,active: 6.51 µM,
O=C(COCc1cc(-c2ccc(F)cc2)on1)Nc1cc(Cl)cc(Cl)c1,inactive,
COc1ccc(C)c2sc(N(CCCN(C)C)C(=O)CS(=O)(=O)c3ccc(F)cc3)nc12,inactive,
C=C1CC(Cn2cc(Br)c(=O)[nH]c2=O)(c2ccc(-c3ccccc3)cc2)OC1=O (configuration not stated),"inconclusive: 0.0073 µM [cytotoxic, full curve, poor fit]",
CCOC(=O)C(C)Oc1cccc2c(=O)n(CC(=O)NCc3ccco3)ccc12 (configuration not stated),active: 0.731 µM,
CCC(=O)c1cn(CC(=O)Nc2ccc(C)cc2C)c2ccccc12,inactive,
O=C(N/N=C\c1cn[nH]c1-c1ccccc1)c1ccc([N+](=O)[O-])cc1,"inconclusive: 29.1 µM [rising, single point]",
COc1cc(C(=O)N/N=C/c2cc([N+](=O)[O-])cs2)cc(OC)c1OC,"inconclusive: 0.651 µM [cytotoxic, full curve, poor fit]",
c1ccc(C(c2ccccc2)N2CCN(Cc3nnnn3C3CCCCC3)CC2)cc1,"inconclusive: 25.9 µM [cytotoxic, single point]",
Cc1ccc(Oc2ccc(S(=O)(=O)N3CCOCC3)cc2C(N)=O)c(-n2nc3ccccc3n2)c1,active: 6.51 µM,
CCC(C)c1ccc(NC(=O)Nc2cnccn2)cc1 (configuration not stated),active: 3.26 µM,
COc1ccc(OC)c(NC(=O)c2cc3n(n2)C(C(F)(F)F)CC(c2ccc4c(c2)OCO4)N3)c1 (configuration not stated),"inconclusive: 29.1 µM [cytotoxic, single point]",
CCOc1cc(CNC(=O)c2cc(-c3ccc(Cl)s3)nc3ccccc23)ccc1OC,inactive,
Cc1ccc(-c2cn3cccnc3n2)cc1NC(=O)c1c(-c2ccccc2Cl)noc1C,active: 11.6 µM,
COc1ccc(/C=C2\SC(=O)N(CCCC(=O)Nc3cc(Cl)ccc3C(=O)O)C2=O)cc1,inactive,
CCCc1c(C(=O)N/N=C(\C)c2ccccn2)nnn1-c1nonc1N,active: 5.8 µM,
COc1cccc(NC(=O)C2CCN(Cc3cnn(-c4ccccc4)c3-n3cccc3)CC2)c1,"inconclusive: 29.1 µM [cytotoxic, single point]",

# Reference: PubChem BioAssay AID1347075 (National Center for Advancing Translational Sciences (NCATS), 2019)
